From article PMC11112778
These are yes or no findings as the source states them, for the method shown. In cells and extracts the contact can be indirect. Some entries that bind do so weakly or less than the wild type.

The chains behind the UniProt entries cited, without tags or fusion partners.
UniProt P19474: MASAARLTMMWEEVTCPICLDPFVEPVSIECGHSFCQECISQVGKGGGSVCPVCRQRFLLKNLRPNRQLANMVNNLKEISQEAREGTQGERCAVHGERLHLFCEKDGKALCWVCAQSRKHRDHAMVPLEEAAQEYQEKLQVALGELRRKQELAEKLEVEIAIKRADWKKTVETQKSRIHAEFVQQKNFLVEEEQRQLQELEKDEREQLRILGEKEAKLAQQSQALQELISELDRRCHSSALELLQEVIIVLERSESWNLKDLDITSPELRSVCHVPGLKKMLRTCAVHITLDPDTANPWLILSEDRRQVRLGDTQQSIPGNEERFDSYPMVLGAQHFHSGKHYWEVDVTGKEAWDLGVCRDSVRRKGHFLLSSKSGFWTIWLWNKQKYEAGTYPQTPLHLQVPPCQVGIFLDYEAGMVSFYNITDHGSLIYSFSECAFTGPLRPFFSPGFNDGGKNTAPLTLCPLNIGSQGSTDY

Target: tripartite motif-containing protein 21 (human (endogenous in ESCC cells)) (UniProt P19474)
Assay: co-IP; ESCC cell lysates (RIPA lysis buffer) incubated with NEK2 or TRIM21 antibody overnight at 4 °C; protein A/G agarose beads 4 h at 4 °C; western blotting; IgG control

B1: NIMA-related kinase 2 (protein, UniProt P51955 1-445)
chain: MPSRAEDYEVLYTIGTGSYGRCQKIRRKSDGKILVWKELDYGSMTEAEKQMLVSEVNLLRELKHPNIVRYYDRIIDRTNTTLYIVMEYCEGGDLASVITKGTKERQYLDEEFVLRVMTQLTLALKECHRRSDGGHTVLHRDLKPANVFLDGKQNVKLGDFGLARILNHDTSFAKTFVGTPYYMSPEQMNRMSYNEKSDIWSLGCLLYELCALMPPFTAFSQKELAGKIREGKFRRIPYRYSDELNEIITRMLNLKDYHRPSVEEILENPLIADLVADEQRRNLERRGRQLGEPEKSQDSSPVLSELKLKEIQLQERERALKAREERLEQKEQELCVRERLAEDKLARAENLLKNYSLLKERKFLSLASNPELLNLPSSVIKKKVHFSGESKENIMRSENSESQLTSKSKCKDLKKRLHAAQLRAQALSDIEKNYQLKSRQILGMR
How did the binding turn out when B1 was run?
The binding was “binds”.
